{"source": "patent US11779628B2", "about": "(Xigen Inflammation Ltd., priority 2014, dated 2023)", "experiment": "peptide synthesis", "conditions": "whole synthesis", "note": "End groups of sequences in plain letters are not given here.", "data": [{"sequence": "DQSRPVQPFLNLTTPRKPRPPRRRQRRKKRG", "values": [{"measurement": "purity (crude or final not stated)", "value": 95.28, "unit": "%"}]}]}
